Experimental data taken from the supplement of paper PMC11348887.
Where a name gives a salt, the structure may show the parent alone. Some of the results follow. Most entries show no effect beyond the scatter of the controls.

Tested on: hPSC-derived cortical neurons (WA09)
Assay: total neurite length per nucleus (MAP2) z-score; higher = more neurite growth
Details: 5 µM; treatment: days 7-14 after plating, readout day 21

Compound	total neurite length per nucleus (z-score)
C#C[C@]1(O)CC[C@H]2[C@@H]3CCC4=CC(=O)CC[C@@H]4[C@H]3CC[C@@]21C [Norethindrone]	0.0263
CN(C)c1nc(N(C)C)nc(N(C)C)n1 [Altretamine]	0.515
COc1cc(N2CCC(N)CC2)ccc1Nc1ncc(Cl)c(-c2c[nH]c3ccccc23)n1	-0.539
CCCCCCNC(=O)n1cc(F)c(=O)[nH]c1=O [Carmofur]	-0.569
NNC(=O)c1ccncc1.Nc1ccc(C(=O)O)c(O)c1 [Pasiniazid]	0.313
COc1c2ccoc2cc2oc(=O)ccc12 [Bergapten]	-0.192
CO/N=C(\C(=O)N[C@@H]1C(=O)N2C(C(=O)O)=C(COC(C)=O)CS[C@H]12)c1csc(N)n1 [Cefotaxime sodium]	1.48
C=CCNC1=C2C[C@@H](C)C[C@H](OC)[C@H](O)[C@@H](C)/C=C(\C)[C@H](OC(N)=O)[C@@H](OC)/C=C\C=C(/C)C(=O)NC(=CC1=O)C2=O [17-AAG (Tanespimycin)]	4.31
C=CC(=O)Nc1cccc(Oc2nc(Nc3ccc(N4CCN(C)CC4)cc3)nc3ccsc23)c1	-1.43
CC(S)C(=O)NCC(=O)O (stereo not drawn) [Tiopronin]	0.548
O=C(O)CC[C@@H](O)C(=O)O [Disodium (R)-2-Hydroxyglutarate]	0.32
CNC(=O)Nc1ccc(-c2nc(N3CC4CCC(C3)O4)c3cnn(C4CCC5(CC4)OCCO5)c3n2)cc1	-1
Cn1cc(-c2ccc(S(=O)(=O)n3ccc(/C=C/C(=O)Nc4ccccc4N)c3)cc2)cn1	0.497
Nc1ncnc2c1c(-c1cccc(OCc3ccccc3)c1)cn2C1CC(CN2CCCC2)C1 (stereo not drawn)	-2.92
CN(C)C(=O)c1ccc(S(=O)(=O)c2ccc(NC(=O)[C@@](C)(O)C(F)(F)F)c(Cl)c2)cc1	2.33
CO[C@@]12[C@H](COC(N)=O)C3=C(C(=O)C(C)=C(N)C3=O)N1C[C@@H]1N[C@@H]12 [Mitomycin C]	-6.69
CCOC(=O)C1=C(C)NC(C)=C(C(=O)OC)C1c1cccc([N+](=O)[O-])c1 (stereo not drawn) [Nitrendipine]	-1.2
C#Cc1cccc(Nc2ncnc3cc(OCCOC)c(OCCOC)cc23)c1 [Erlotinib HCl (OSI-744)]	1.17
CC(N)C12CC3CC(CC(C3)C1)C2 (stereo not drawn) [Rimantadine]	0.515
O=C(Nc1cccc2cccnc12)c1ccc(N2C(=O)[C@@H]3[C@H](C2=O)[C@@H]2C=C[C@H]3C2)cc1 [IWR-1-endo]	-0.355

Compound	total neurite length per nucleus (z-score)
N#C/C(=C1/SC[C@@H](c2ccc(Cl)cc2Cl)S1)n1ccnc1 [Luliconazole]	0.0875
O=C(O)c1ccc2c(c1)nc(Nc1cccc(Cl)c1)c1ccncc12 [CX-4945 (Silmitasertib)]	0.0507
CN(C)CCOc1ccc(-c2nc(-c3ccncc3)c(-c3ccc4c(c3)CC/C4=N\O)[nH]2)cc1	-5.85
CN1[C@@H]2CC[C@H]1C[C@@H](OC(c1ccccc1)c1ccccc1)C2 [Benztropine mesylate]	-1.52
c1ccc(-c2ccc(C(c3ccccc3)n3ccnc3)cc2)cc1 (stereo not drawn) [Bifonazole]	-1.02
CNCc1ccc(C)c(NC(=O)c2ccc(Nc3nc(-c4ccccc4)c4ccccc4n3)cc2)c1	-0.948
CC(=O)NC(CC(C)C)C(=O)O (stereo not drawn) [Acetylleucine]	-0.0143
CCCCOc1ccc(C(=O)CCN2CCCCC2)cc1 [Dyclonine HCl]	-0.577
Clc1ccc(COC(Cn2ccnc2)c2ccc(Cl)cc2Cl)cc1 (stereo not drawn) [Econazole nitrate]	-0.124
OC(CC1c2ccccc2-c2cncn21)C1CCCCC1 (stereo not drawn)	0.788
O=C1c2c(O)cccc2C([C@@H]2O[C@H](CO)[C@@H](O)[C@H](O)[C@H]2O)c2cc(CO)cc(O)c21 (stereo partly drawn) [Aloin]	0.361
CN1CC(=O)N2[C@H](c3ccc4c(c3)OCO4)c3[nH]c4ccccc4c3C[C@@H]2C1=O [Tadalafil]	1.08
CNCC[C@H](Oc1cccc2ccccc12)c1cccs1 [Duloxetine HCl]	-0.675
O=C(O)Cc1ccccc1Nc1c(Cl)cccc1Cl [Diclofenac Diethylamine]	0.765
CCN1CCN(Cc2ccc(-c3cc4c(N[C@H](C)c5ccccc5)ncnc4[nH]3)cc2)CC1	-0.0383
N=C(N)NC(=N)NCCc1ccccc1 [Phenformin HCl]	2.02
CC1=Nc2ccc(Cl)cc2S(=O)(=O)N1 [Diazoxide]	0.0682
O=C(Nc1ccc(OC(F)(F)F)cc1)c1sccc1NCc1ccnc2ccccc12	0.783
Cc1c(NC(=O)OC[C@@H]2COCCN2)cn2ncnc(Nc3ccc4c(cnn4Cc4cccc(F)c4)c3)c12	0.502

In a second layout: results already given.
CN1[C@@H]2CC[C@H]1C[C@@H](OC(c1ccccc1)c1ccccc1)C2 [Benztropine mesylate]
  total neurite length per nucleus (z-score): -1.52
c1ccc(-c2ccc(C(c3ccccc3)n3ccnc3)cc2)cc1 (stereo not drawn) [Bifonazole]
  total neurite length per nucleus (z-score): -1.02

Pulled by structure from above:
Compound	total neurite length per nucleus (z-score)
CNCc1ccc(C)c(NC(=O)c2ccc(Nc3nc(-c4ccccc4)c4ccccc4n3)cc2)c1	-0.948
CN1CC(=O)N2[C@H](c3ccc4c(c3)OCO4)c3[nH]c4ccccc4c3C[C@@H]2C1=O [Tadalafil]	1.08

Tested on: hPSC-derived cortical neurons (WA09)
Assay: nucleus roundness z-score vs screen plate; higher = rounder nuclei (more mature)
Details: 5 µM; treatment: days 7-14 after plating, readout day 21

Compound	nucleus roundness z-score
C#C[C@]1(O)CC[C@H]2[C@@H]3CCC4=CC(=O)CC[C@@H]4[C@H]3CC[C@@]21C [Norethindrone]	-0.225
CN(C)c1nc(N(C)C)nc(N(C)C)n1 [Altretamine]	-0.155
COc1cc(N2CCC(N)CC2)ccc1Nc1ncc(Cl)c(-c2c[nH]c3ccccc23)n1	-6.61
CCCCCCNC(=O)n1cc(F)c(=O)[nH]c1=O [Carmofur]	0.618
NNC(=O)c1ccncc1.Nc1ccc(C(=O)O)c(O)c1 [Pasiniazid]	0.606
COc1c2ccoc2cc2oc(=O)ccc12 [Bergapten]	-0.45
CO/N=C(\C(=O)N[C@@H]1C(=O)N2C(C(=O)O)=C(COC(C)=O)CS[C@H]12)c1csc(N)n1 [Cefotaxime sodium]	-0.558
C=CCNC1=C2C[C@@H](C)C[C@H](OC)[C@H](O)[C@@H](C)/C=C(\C)[C@H](OC(N)=O)[C@@H](OC)/C=C\C=C(/C)C(=O)NC(=CC1=O)C2=O [17-AAG (Tanespimycin)]	0.615
C=CC(=O)Nc1cccc(Oc2nc(Nc3ccc(N4CCN(C)CC4)cc3)nc3ccsc23)c1	-1.86
CC(S)C(=O)NCC(=O)O (stereo not drawn) [Tiopronin]	0.0442
O=C(O)CC[C@@H](O)C(=O)O [Disodium (R)-2-Hydroxyglutarate]	0.56
CNC(=O)Nc1ccc(-c2nc(N3CC4CCC(C3)O4)c3cnn(C4CCC5(CC4)OCCO5)c3n2)cc1	-3.47
Cn1cc(-c2ccc(S(=O)(=O)n3ccc(/C=C/C(=O)Nc4ccccc4N)c3)cc2)cn1	0.295
Nc1ncnc2c1c(-c1cccc(OCc3ccccc3)c1)cn2C1CC(CN2CCCC2)C1 (stereo not drawn)	0.247
CN(C)C(=O)c1ccc(S(=O)(=O)c2ccc(NC(=O)[C@@](C)(O)C(F)(F)F)c(Cl)c2)cc1	0.739
CO[C@@]12[C@H](COC(N)=O)C3=C(C(=O)C(C)=C(N)C3=O)N1C[C@@H]1N[C@@H]12 [Mitomycin C]	-2.22
CCOC(=O)C1=C(C)NC(C)=C(C(=O)OC)C1c1cccc([N+](=O)[O-])c1 (stereo not drawn) [Nitrendipine]	-1.25
C#Cc1cccc(Nc2ncnc3cc(OCCOC)c(OCCOC)cc23)c1 [Erlotinib HCl (OSI-744)]	-0.248
CC(N)C12CC3CC(CC(C3)C1)C2 (stereo not drawn) [Rimantadine]	-1.25
O=C(Nc1cccc2cccnc12)c1ccc(N2C(=O)[C@@H]3[C@H](C2=O)[C@@H]2C=C[C@H]3C2)cc1 [IWR-1-endo]	0.15

Compound	nucleus roundness z-score
N#C/C(=C1/SC[C@@H](c2ccc(Cl)cc2Cl)S1)n1ccnc1 [Luliconazole]	0.728
O=C(O)c1ccc2c(c1)nc(Nc1cccc(Cl)c1)c1ccncc12 [CX-4945 (Silmitasertib)]	-1.02
CN(C)CCOc1ccc(-c2nc(-c3ccncc3)c(-c3ccc4c(c3)CC/C4=N\O)[nH]2)cc1	2.41
CN1[C@@H]2CC[C@H]1C[C@@H](OC(c1ccccc1)c1ccccc1)C2 [Benztropine mesylate]	-0.405
c1ccc(-c2ccc(C(c3ccccc3)n3ccnc3)cc2)cc1 (stereo not drawn) [Bifonazole]	-1.62
CNCc1ccc(C)c(NC(=O)c2ccc(Nc3nc(-c4ccccc4)c4ccccc4n3)cc2)c1	-6.8
CC(=O)NC(CC(C)C)C(=O)O (stereo not drawn) [Acetylleucine]	0.0974
CCCCOc1ccc(C(=O)CCN2CCCCC2)cc1 [Dyclonine HCl]	1.19
Clc1ccc(COC(Cn2ccnc2)c2ccc(Cl)cc2Cl)cc1 (stereo not drawn) [Econazole nitrate]	-0.0831
OC(CC1c2ccccc2-c2cncn21)C1CCCCC1 (stereo not drawn)	1.52
O=C1c2c(O)cccc2C([C@@H]2O[C@H](CO)[C@@H](O)[C@H](O)[C@H]2O)c2cc(CO)cc(O)c21 (stereo partly drawn) [Aloin]	0.343
CN1CC(=O)N2[C@H](c3ccc4c(c3)OCO4)c3[nH]c4ccccc4c3C[C@@H]2C1=O [Tadalafil]	0.0749
CNCC[C@H](Oc1cccc2ccccc12)c1cccs1 [Duloxetine HCl]	-0.379
O=C(O)Cc1ccccc1Nc1c(Cl)cccc1Cl [Diclofenac Diethylamine]	1.1
CCN1CCN(Cc2ccc(-c3cc4c(N[C@H](C)c5ccccc5)ncnc4[nH]3)cc2)CC1	0.294
N=C(N)NC(=N)NCCc1ccccc1 [Phenformin HCl]	0.559
CC1=Nc2ccc(Cl)cc2S(=O)(=O)N1 [Diazoxide]	1.21
O=C(Nc1ccc(OC(F)(F)F)cc1)c1sccc1NCc1ccnc2ccccc12	1.49
Cc1c(NC(=O)OC[C@@H]2COCCN2)cn2ncnc(Nc3ccc4c(cnn4Cc4cccc(F)c4)c3)c12	0.508
